Measurements: PMC8400830
Results are given in words; binding and its absence hold for the method and conditions named. Binding seen in cells or lysates may run through a third protein. Some results given as binding are weak or reduced against the parent protein; the word gives no strength.

Target: heterogeneous nuclear ribonucleoprotein K (hnRNPK) (human (endogenous in CRC cell lines)) (UniProt P61978)
Experiment: co-IP; IP/Co-IP Kit (Thermo Fisher Scientific), endogenous proteins in CRC cell lysates; cells with circ-GALNT16 knockdown or overexpression, SENP2 knockdown, with or without UV exposure (6 h)

- binding: binds
B1: SUMO-specific peptidase 2 (SENP2) (enzyme, UniProt Q9HC62 1-589)
chain: MYRWLVRILGTIFRFCDRSVPPARALLKRRRSDSTLFSTVDTDEIPAKRPRLDCFIHQVKNSLYNAASLFGFPFQLTTKPMVTSACNGTRNVAPSGEVFSNSSSCELTGSGSWNNMLKLGNKSPNGISDYPKIRVTVTRDQPRRVLPSFGFTLNSEGCNRRPGGRRHSKGNPESSLMWKPQEQAVTEMISEESGKGLRRPHCTVEEGVQKEEREKYRKLLERLKESGHGNSVCPVTSNYHSSQRSQMDTLKTKGWGEEQNHGVKTTQFVPKQYRLVETRGPLCSLRSEKRCSKGKITDTETMVGIRFENESRRGYQLEPDLSEEVSARLRLGSGSNGLLRRKVSIIETKEKNCSGKERDRRTDDLLELTEDMEKEISNALGHGPQDEILSSAFKLRITRGDIQTLKNYHWLNDEVINFYMNLLVERNKKQGYPALHVFSTFFYPKLKSGGYQAVKRWTKGVNLFEQEIILVPIHRKVHWSLVVIDLRKKCLKYLDSMGQKGHRICEILLQYLQDESKTKRNSDLNLLEWTHHSMKPHEIPQQLNGSDCGMFTCKYADYISRDKPITFTQHQMPLFRKKMVWEILHQQLL
